According to patent US20230128969A1, “POLYURETHANE FOAM COMPOSITIONS WITH ANTIMICROBIAL PROPERTIES” (SANITIZED AG, priority 2020, published 2023):
Read-outs that look alike come from different tables or passages of the source.

Experiment: Evaluation of foam or coating quality (quality marks)
Parameters: key: 0: no foam or coating formed; +: very bad or collapsed foam; very defective coating; ++: bad foam quality; defective coating; +++: mediocre foam or coating quality; ++++: good foam or coating quality; +++++: comparable quality with reference foam or coating
[1] = memory foam A1, 0.5 pbw (C), pbw of commercial product (active content in label)
[2] = memory foam A1, 1 pbw (C), pbw of commercial product (active content in label)
[3] = memory foam A1, 2 pbw (C), pbw of commercial product (active content in label)

O=C([O-])CO.[Na+] [Sodium glycolate]
Q (foam quality): ++++

CCCCCCCCCCCC[N+](C)(C)[O-] [N,N-Dimethyldodecylamine N-oxide (30%), N,N-Dimethyldodecylamine N-oxide]
Quality at given amount of (C) in pbw: 0

O=C([O-])CC(O)(CC(=O)O)C(=O)O.[Na+] [Monosodium citrate]
Q (foam quality): +

O=C([O-])CC(O)C(=O)[O-].[Na+].[Na+] (racemic) [DL-Malic acid disodium salt]
Q (foam quality): ++++

CCCCCCCCCC[N+](C)(C)CCCCCCCCCC.[Cl-] [didecyldimethyl ammonium chloride]
Q (foam quality): +++++ and ++++ and ++ | Quality at given amount of (C) in pbw: +++++ and ++++ and ++

CCCCCCCCCCCCCC[N+](C)(C)CCC[Si](OC)(OC)OC.[Cl-] [dimethyltetradecyl(3-(trimethoxysilyl)propyl)ammonium chloride]
Quality at given amount of (C) in pbw (memory foam A1, 0.25 pbw (C), pbw of commercial product (active content in label)): +++++ | Quality at given amount of (C) in pbw [1]: +++++ | Q (foam quality) (memory foam A1, 0.5 pbw (C), no (B), (E) Arcol Polyol 1108 1 pbw): ++++ | Q (foam quality) (memory foam A1, 0.5 pbw (C), no (B), (E) Diglyme 1 pbw): ++++ | Q (foam quality) (memory foam A1, 0.5 pbw (C), no (B), (E) Triacetin 1 pbw): ++++ | Q (foam quality) (memory foam A1, 0.5 pbw (C), no (B), (E) Water, dH20 1 pbw): +++ | Q (foam quality) (memory foam A1, 0.5 pbw (C), no (B), no (E)): ++++ | Quality at given amount of (C) in pbw [2]: ++++ | Quality at given amount of (C) in pbw [3]: +++ | Q (foam quality) (memory foam A2, 0.125 pbw (C)): ++++ | Q (foam quality) (memory foam A2, 0.25 pbw (C)): ++++ | Q (foam quality) (memory foam A2, 0.5 pbw (C)): ++++ | Q (foam quality) (memory foam A2, 1 pbw (C)): +++

O=C([O-])CN(CCN(CC(=O)[O-])CC(=O)[O-])CC(=O)[O-].[Na+].[Na+].[Na+].[Na+] [tetrasodium EDTA salt, EDTA, tetrasodium]
Q (foam quality): ++++

O=C(O)C(O)C(O)C(=O)O (racemic) [DL-Tartaric acid]
Q (foam quality): +

O=C([O-])C(O)C(O)C(=O)O.[Na+] (stereo not drawn) [Sodium hydrogen tartrate]
Q (foam quality): ++++

C[C@H](O)C(=O)[O-].[Na+] [Sodium L-lactate]
Q (foam quality): ++++

CCCCCCCCCCCCCCCCCC[N+](C)(C)CCC[Si](OC)(OC)OC.[Cl-] [dimethyloctadecyl(3-(trimethoxysilyl)propyl)ammonium chloride]
Quality at given amount of (C) in pbw [1]: +++ | Quality at given amount of (C) in pbw [2]: ++ | Quality at given amount of (C) in pbw [3]: + | Q (foam quality) (memory foam A2, 0.125 pbw (C)): ++++ | Q (foam quality) (memory foam A2, 0.25 pbw (C)): +++ | Q (foam quality) (memory foam A2, 0.5 pbw (C)): ++ | Q (foam quality) (memory foam A2, 1 pbw (C)): +
